PubChem BioAssay AID1259405, NCATS | 2018
The whole screen tested about 50,000 reagents; below is an unselected part. Of all reagents, about 4,000 (8%) were called active. 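Mouse siRNA library applied to hamster cells; one well for each siRNA.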 Reagents against one gene are numbered here.

- Aim: 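Mouse-designed siRNAs used to find CHO productivity engineering targets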 (primary screen)
- Cell system: Chinese hamster CHO-K1 ovary cells with stable secreted eGFP expression
- Reagents: single siRNA against mouse genes, 0.8 pmol siRNA per well (2 µl of 400 nM stock)
- Timing: 3 days
- Detection: 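Per-well intracellular GFP measured by laser scanning cytometry, plus viability from ATP luminescence, each relative to plate median of non-targeting control wells, in %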
- Reading the numbers: GFP, % of control: higher = more GFP per well, higher productivity; viability (ATP), % of control: higher = more viable cells (more ATP)
- Hit rule: 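a knock-down is called active if GFP reaches 120% or more of non-targeting control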

Hoxd9 (GeneID 15438) #1 gave GFP, % of control 82.8; viability (ATP), % of control 100; inactive.
With knock-down of Hoxd9 (GeneID 15438) #2, the record shows GFP, % of control 84.4; viability (ATP), % of control 95.7; inactive.
Knock-down of Hoxd9 (GeneID 15438) #3 gave: GFP, % of control 65.1; viability (ATP), % of control 95.3; inactive.
Against Tomm6 (GeneID 66119) #1, the entry reads GFP, % of control 116; viability (ATP), % of control 80.8; inactive.
Against Tomm6 (GeneID 66119) #2 the deposit lists GFP, % of control 150; viability (ATP), % of control 98.3; active.
For Tomm6 (GeneID 66119) #3, the values are GFP, % of control 76.2; viability (ATP), % of control 80.2; inactive.
Knock-down of Clrn3 (GeneID 212070) #1 gave: GFP, % of control 52.7; viability (ATP), % of control 39.8; inactive.
After knock-down of Clrn3 (GeneID 212070) #2 the results were GFP, % of control 70.6; viability (ATP), % of control 88.3; inactive.
With knock-down of Clrn3 (GeneID 212070) #3 the results were GFP, % of control 263; viability (ATP), % of control 53.8; active.
Knock-down of Mical3 (GeneID 194401) #1 gave: GFP, % of control 99.1; viability (ATP), % of control 55; inactive.
Against Mical3 (GeneID 194401) #2 the deposit lists GFP, % of control 112; viability (ATP), % of control 58.2; inactive.
Depletion of Mical3 (GeneID 194401) #3 came out at: GFP, % of control 73.6; viability (ATP), % of control 92.1; inactive.
Spesp1 (GeneID 66712) #1 showed GFP, % of control 86.6; viability (ATP), % of control 92.6; inactive.
With knock-down of Spesp1 (GeneID 66712) #2 the results were GFP, % of control 126; viability (ATP), % of control 112; active.
With knock-down of Spesp1 (GeneID 66712) #3, the record shows GFP, % of control 147; viability (ATP), % of control 121; active.

Reagents above called active, once more:
Tomm6 (GeneID 66119) #2 — GFP, % of control: 150; viability (ATP), % of control: 98.3; activity call: active
Clrn3 (GeneID 212070) #3 — GFP, % of control: 263; viability (ATP), % of control: 53.8; activity call: active
Spesp1 (GeneID 66712) #2 — GFP, % of control: 126; viability (ATP), % of control: 112; activity call: active
Spesp1 (GeneID 66712) #3 — GFP, % of control: 147; viability (ATP), % of control: 121; activity call: active

Further records follow.
With knock-down of Abcb1a (GeneID 18671) #1, the record shows GFP, % of control 107; viability (ATP), % of control 92.9; inactive.
Depletion of Abcb1a (GeneID 18671) #2 resulted in: GFP, % of control 86.1; viability (ATP), % of control 80.7; inactive.
Against Abcb1a (GeneID 18671) #3 the deposit lists GFP, % of control 79.7; viability (ATP), % of control 75.5; inactive.
Klhl8 (GeneID 246293) #1 showed GFP, % of control 131; viability (ATP), % of control 80.9; active.
Against Klhl8 (GeneID 246293) #2, the values are GFP, % of control 129; viability (ATP), % of control 115; active.
Tas1r1 (GeneID 110326) #1 scored GFP, % of control 81.1; viability (ATP), % of control 61.4; inactive.
Against Tas1r1 (GeneID 110326) #2 the deposit lists GFP, % of control 112; viability (ATP), % of control 93.8; inactive.
Depletion of Tas1r1 (GeneID 110326) #3 gave: GFP, % of control 64.5; viability (ATP), % of control 66.3; inactive.
H2-M10.3 (GeneID 110696) #1 scored GFP, % of control 70.1; viability (ATP), % of control 69.3; inactive.
H2-M10.3 (GeneID 110696) #2 showed GFP, % of control 45.8; viability (ATP), % of control 79.8; inactive.
Against H2-M10.3 (GeneID 110696) #3, the entry reads GFP, % of control 70.8; viability (ATP), % of control 88.8; inactive.
With knock-down of Nt5c (GeneID 50773) #1, the screen gave GFP, % of control 61.5; viability (ATP), % of control 74.4; inactive.
With knock-down of Nt5c (GeneID 50773) #2 the results were GFP, % of control 61.7; viability (ATP), % of control 60.4; inactive.
Depletion of Nt5c (GeneID 50773) #3 came out at: GFP, % of control 52.4; viability (ATP), % of control 64.1; inactive.
Knock-down of Ik (GeneID 24010) #1 gave: GFP, % of control 112; viability (ATP), % of control 45.3; inactive.
Against Ik (GeneID 24010) #2 the deposit lists GFP, % of control 72.7; viability (ATP), % of control 28.9; inactive.
Ik (GeneID 24010) #3 gave GFP, % of control 80.5; viability (ATP), % of control 56.6; inactive.
Gem (GeneID 14579) #1 gave GFP, % of control 153; viability (ATP), % of control 103; active.
Depletion of Gem (GeneID 14579) #2 gave: GFP, % of control 82.4; viability (ATP), % of control 63.8; inactive.
Gem (GeneID 14579) #3 showed GFP, % of control 120; viability (ATP), % of control 86.8; inactive.
Depletion of Nt5dc3 (GeneID 103466) #1 came out at: GFP, % of control 84.6; viability (ATP), % of control 94.5; inactive.
Depletion of Nt5dc3 (GeneID 103466) #2 gave: GFP, % of control 78.2; viability (ATP), % of control 79.7; inactive.
Depletion of Nt5dc3 (GeneID 103466) #3 resulted in: GFP, % of control 121; viability (ATP), % of control 107; active.
For Tas2r120 (GeneID 387348) #1 the deposit lists GFP, % of control 45.7; viability (ATP), % of control 66.8; inactive.
Depletion of Tas2r120 (GeneID 387348) #2 resulted in: GFP, % of control 64.9; viability (ATP), % of control 78.5; inactive.
Tas2r120 (GeneID 387348) #3 scored GFP, % of control 66.6; viability (ATP), % of control 69.2; inactive.
